Results are given in words; binding and its absence hold for the method and conditions named. Some binding calls cover weakened binding; strength is not graded here.

By UniProt entry, the sequences of proteins in these tests, tags left out. Where a name states a change or a piece, a line headed by the entry shows the natural chain unless it says otherwise. Residues count along the entry.
UniProt P14778, residues 18-336: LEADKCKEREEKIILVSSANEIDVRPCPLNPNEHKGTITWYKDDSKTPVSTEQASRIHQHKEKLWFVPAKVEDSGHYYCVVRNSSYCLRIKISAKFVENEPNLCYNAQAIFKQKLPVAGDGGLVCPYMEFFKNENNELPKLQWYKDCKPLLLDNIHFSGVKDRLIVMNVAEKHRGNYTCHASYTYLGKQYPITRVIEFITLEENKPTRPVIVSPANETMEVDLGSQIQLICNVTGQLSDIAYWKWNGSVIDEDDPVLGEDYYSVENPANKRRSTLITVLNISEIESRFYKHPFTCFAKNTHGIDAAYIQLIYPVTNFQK
UniProt P18510: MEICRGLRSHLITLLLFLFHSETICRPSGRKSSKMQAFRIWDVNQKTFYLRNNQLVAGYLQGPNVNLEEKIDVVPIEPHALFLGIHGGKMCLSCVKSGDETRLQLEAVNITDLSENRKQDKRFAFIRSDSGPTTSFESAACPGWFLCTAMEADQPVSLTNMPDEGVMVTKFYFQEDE

In experiment [1] the target is recombinant protein comprising the whole extracellular part of IL1RI (UniProt P14778). Briefly: SPR, IL1RI immobilised on sensor chip. (SPR reads the build-up and loss of mass on a sensor chip optically.)
For experiment [2] the target is unchanged. Kind of experiment: SPR (BiaCore 2000), IL1RI ectodomain immobilised on CM5 chip.

For the substance “IL1Ra protein (IL-1 receptor antagonist protein) (from UniProt P18510 26-177) (ligand)”, the binding result in experiment [1] and in experiment [2] was “binds” each time.

Source of the values: US20140073556A1 (published 2014).
